Assay results from the supplement of paper PMC10849652.
The list shows a part of the results.

Protein sequences, listed by entry. Tags and fused reporters are not part of them. Lines headed by an entry give the natural chain unless they say otherwise; changes in a name come on top.
UniProt Q03468, whole entry, looked up: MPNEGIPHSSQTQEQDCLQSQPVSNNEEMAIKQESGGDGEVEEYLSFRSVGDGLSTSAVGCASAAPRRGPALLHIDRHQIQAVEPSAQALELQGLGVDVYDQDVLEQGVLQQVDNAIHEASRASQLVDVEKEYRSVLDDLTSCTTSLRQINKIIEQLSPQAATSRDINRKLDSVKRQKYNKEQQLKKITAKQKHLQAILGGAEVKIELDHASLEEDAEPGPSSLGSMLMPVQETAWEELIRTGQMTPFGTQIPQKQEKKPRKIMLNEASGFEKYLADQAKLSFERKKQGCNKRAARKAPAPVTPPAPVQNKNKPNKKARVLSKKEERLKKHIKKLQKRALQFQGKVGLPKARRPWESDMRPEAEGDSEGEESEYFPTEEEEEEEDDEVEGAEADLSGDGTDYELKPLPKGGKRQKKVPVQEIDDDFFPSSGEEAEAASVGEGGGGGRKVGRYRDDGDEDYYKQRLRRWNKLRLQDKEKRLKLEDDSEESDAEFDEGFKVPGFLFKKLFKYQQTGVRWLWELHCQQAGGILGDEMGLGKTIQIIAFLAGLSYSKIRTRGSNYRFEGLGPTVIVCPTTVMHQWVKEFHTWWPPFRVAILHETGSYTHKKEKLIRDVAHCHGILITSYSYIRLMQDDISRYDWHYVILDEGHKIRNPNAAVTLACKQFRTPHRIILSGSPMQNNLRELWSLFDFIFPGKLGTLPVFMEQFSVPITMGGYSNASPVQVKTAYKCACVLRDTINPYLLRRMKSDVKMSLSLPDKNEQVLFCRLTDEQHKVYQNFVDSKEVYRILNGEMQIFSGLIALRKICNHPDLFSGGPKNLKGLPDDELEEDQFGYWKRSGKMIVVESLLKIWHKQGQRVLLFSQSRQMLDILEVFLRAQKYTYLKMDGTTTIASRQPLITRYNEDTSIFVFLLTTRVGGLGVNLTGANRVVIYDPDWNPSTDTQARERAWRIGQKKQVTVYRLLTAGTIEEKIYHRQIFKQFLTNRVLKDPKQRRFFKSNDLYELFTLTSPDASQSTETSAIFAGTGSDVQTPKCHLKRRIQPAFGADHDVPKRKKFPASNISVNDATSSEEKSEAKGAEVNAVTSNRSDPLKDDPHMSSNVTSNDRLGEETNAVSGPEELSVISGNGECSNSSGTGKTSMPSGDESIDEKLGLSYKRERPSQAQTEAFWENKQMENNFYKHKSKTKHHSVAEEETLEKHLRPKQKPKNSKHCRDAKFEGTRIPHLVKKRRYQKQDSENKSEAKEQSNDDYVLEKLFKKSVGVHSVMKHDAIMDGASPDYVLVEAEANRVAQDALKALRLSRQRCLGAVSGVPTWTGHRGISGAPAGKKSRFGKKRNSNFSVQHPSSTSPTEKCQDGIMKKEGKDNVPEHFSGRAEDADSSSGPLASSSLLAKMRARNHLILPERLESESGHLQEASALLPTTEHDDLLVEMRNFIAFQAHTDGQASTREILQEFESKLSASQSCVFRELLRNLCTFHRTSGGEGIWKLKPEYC
UniProt P07814: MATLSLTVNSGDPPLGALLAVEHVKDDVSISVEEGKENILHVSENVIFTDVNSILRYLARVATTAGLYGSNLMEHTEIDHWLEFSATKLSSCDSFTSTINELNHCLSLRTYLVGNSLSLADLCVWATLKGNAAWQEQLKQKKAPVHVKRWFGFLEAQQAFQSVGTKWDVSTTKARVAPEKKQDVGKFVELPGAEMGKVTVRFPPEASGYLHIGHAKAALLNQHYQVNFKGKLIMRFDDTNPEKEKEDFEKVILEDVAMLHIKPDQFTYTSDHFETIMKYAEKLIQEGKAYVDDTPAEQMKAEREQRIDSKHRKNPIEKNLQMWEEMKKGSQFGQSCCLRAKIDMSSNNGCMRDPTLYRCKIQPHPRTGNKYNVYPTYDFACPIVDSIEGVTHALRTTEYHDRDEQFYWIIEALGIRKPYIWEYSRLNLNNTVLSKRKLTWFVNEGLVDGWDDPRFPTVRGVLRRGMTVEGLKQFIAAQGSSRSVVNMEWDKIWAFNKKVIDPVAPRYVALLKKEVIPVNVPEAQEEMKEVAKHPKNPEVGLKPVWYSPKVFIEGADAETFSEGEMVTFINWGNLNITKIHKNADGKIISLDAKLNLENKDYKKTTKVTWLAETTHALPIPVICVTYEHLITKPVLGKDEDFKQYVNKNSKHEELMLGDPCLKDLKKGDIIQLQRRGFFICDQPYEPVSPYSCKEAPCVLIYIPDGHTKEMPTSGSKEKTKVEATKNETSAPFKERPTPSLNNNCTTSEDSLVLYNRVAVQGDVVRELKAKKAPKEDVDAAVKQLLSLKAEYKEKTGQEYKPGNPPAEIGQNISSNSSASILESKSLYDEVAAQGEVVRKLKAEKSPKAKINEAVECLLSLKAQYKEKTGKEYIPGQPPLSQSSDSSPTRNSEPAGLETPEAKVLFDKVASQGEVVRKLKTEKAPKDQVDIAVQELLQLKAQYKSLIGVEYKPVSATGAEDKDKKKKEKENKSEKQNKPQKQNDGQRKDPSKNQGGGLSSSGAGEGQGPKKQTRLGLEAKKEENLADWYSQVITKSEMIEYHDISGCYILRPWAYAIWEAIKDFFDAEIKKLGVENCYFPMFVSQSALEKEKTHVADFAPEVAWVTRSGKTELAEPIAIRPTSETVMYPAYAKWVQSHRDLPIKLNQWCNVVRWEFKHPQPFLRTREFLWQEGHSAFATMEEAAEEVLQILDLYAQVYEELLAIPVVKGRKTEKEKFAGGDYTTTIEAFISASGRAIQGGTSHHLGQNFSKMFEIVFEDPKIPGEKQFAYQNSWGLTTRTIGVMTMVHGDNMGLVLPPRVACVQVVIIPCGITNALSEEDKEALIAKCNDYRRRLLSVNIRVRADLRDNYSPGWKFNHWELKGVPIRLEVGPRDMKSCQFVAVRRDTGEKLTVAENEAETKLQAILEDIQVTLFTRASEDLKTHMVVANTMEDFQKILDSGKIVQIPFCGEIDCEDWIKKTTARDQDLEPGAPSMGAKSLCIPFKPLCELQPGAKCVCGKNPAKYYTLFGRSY
UniProt Q96CS3: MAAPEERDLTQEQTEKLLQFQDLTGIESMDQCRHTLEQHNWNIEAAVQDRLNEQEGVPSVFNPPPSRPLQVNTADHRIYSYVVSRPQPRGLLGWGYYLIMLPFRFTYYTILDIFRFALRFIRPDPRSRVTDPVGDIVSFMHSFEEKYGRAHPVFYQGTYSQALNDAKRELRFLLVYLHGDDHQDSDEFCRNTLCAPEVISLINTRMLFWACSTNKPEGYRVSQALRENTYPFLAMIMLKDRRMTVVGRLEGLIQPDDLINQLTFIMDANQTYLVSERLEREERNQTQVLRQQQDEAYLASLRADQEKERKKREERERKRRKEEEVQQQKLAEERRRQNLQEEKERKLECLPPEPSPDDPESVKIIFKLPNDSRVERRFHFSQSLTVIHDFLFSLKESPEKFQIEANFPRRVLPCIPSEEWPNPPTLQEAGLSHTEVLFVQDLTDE
UniProt Q5BKY9: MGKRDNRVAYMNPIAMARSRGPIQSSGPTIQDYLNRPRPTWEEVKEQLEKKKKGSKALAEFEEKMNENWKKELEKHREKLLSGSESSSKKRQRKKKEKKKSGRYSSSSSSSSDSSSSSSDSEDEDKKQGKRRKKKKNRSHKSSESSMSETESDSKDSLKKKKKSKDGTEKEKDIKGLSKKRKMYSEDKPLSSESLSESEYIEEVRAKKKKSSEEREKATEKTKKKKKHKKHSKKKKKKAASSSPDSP
UniProt P10768: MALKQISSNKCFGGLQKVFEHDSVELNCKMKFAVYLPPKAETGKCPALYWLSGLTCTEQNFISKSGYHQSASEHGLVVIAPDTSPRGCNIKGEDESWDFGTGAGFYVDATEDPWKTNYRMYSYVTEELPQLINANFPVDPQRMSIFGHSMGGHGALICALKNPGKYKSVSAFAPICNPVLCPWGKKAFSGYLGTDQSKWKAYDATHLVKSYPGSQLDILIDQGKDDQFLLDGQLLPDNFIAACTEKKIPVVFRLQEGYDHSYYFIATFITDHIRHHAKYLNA
UniProt Q9UBC2: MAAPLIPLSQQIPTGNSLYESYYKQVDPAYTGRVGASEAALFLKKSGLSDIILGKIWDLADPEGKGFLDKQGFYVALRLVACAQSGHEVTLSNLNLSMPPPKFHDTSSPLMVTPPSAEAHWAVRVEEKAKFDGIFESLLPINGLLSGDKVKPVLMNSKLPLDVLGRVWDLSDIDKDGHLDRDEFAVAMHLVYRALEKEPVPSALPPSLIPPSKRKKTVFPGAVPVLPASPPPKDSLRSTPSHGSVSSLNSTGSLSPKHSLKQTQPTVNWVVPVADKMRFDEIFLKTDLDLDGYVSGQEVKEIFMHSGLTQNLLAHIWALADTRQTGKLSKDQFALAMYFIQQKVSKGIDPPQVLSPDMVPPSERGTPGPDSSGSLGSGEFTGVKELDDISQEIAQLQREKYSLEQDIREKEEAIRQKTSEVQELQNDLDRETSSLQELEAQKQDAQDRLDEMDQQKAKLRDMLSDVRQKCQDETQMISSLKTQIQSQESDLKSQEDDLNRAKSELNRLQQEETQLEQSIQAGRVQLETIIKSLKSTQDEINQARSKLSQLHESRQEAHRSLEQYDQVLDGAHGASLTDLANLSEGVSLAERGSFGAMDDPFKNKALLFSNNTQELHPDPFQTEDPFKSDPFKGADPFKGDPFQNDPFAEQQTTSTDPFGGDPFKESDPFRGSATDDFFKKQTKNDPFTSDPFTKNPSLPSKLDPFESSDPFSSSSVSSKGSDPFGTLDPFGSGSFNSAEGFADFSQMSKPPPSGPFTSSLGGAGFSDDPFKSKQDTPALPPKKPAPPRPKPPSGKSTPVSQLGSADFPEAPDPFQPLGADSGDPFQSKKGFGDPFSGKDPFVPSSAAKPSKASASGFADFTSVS
UniProt Q96RQ1: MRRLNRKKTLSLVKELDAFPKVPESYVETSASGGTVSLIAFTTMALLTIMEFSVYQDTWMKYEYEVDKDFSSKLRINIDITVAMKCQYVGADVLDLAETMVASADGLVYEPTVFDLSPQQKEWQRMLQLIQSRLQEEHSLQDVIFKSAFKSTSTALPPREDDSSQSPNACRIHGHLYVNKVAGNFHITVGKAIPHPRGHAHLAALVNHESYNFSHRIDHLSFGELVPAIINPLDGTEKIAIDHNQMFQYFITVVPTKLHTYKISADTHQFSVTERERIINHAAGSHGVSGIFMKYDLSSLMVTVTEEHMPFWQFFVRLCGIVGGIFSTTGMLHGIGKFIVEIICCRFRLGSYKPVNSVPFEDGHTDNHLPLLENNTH
UniProt Q86UK5: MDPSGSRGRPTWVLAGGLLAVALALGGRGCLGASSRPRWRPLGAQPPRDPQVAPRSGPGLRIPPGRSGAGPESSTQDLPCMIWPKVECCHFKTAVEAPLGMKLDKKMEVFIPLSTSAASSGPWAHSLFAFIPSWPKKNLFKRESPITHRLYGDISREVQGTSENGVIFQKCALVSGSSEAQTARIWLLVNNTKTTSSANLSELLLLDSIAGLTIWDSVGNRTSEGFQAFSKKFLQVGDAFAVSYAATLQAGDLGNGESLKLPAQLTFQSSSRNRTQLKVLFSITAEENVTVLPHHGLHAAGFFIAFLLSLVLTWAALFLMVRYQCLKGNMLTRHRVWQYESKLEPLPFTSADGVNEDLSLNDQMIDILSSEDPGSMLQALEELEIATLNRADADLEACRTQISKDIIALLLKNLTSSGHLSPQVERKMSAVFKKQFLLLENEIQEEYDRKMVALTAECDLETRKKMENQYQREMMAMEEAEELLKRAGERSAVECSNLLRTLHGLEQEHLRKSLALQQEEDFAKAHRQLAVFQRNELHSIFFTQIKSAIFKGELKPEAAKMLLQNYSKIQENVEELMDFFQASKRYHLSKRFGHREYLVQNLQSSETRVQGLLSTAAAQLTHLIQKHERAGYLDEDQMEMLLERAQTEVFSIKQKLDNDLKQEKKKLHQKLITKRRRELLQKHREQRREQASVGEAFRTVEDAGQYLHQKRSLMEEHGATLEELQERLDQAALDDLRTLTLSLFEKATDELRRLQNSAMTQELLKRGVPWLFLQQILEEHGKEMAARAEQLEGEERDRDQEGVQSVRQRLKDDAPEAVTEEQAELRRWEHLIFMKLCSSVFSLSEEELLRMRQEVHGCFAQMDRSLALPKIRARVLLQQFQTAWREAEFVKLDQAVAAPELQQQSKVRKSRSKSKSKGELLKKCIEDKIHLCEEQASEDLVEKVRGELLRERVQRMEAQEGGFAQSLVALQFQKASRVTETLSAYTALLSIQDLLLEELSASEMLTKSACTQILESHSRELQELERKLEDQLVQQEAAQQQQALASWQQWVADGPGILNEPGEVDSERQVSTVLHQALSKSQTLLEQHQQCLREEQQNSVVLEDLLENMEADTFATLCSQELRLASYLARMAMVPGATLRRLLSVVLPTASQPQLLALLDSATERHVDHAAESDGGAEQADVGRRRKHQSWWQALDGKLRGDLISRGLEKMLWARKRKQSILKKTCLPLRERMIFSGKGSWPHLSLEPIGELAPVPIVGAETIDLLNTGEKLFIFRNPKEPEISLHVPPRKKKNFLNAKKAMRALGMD

How the values were obtained:
Experiment in all cases: log2 fold change, soluble protein after heating vs DMSO (PISA); higher = thermal stabilisation; K562 cells, 10 uM, 30 min; active = over 0.2 and 3.5 SD of the protein, either way, in both replicates (recomputed)
[1] = compound: NC(=O)Nc1cc(-c2cccc(F)c2)sc1C(=O)N[C@H]1CCCNC1
How it was run: (§1)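 K562 cells (2×10^6 cells/mL) were treated with 10 μM compound for 30 min, and aliquots were heated for 3 min over 48°C-58°C. Pooled aliquots were extracted in PBS with 0.5% NP-40 at 4°C, and the supernatant after 21,000xg for 90 min was measured by TMTpro 16plex LC-MS/MS with channel sums equalised. Reported thermal stability, relative to control samples and from duplicates, is a log2 fold change.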

[2] = compound: NC(=O)c1cnc(N[C@@H]2CCCC[C@@H]2N)nc1Nc1cccc(-n2nccn2)c1
How it was run: as §1

[3] = compound: NC1(c2ccc(-c3nc4ccn5c(=O)[nH]nc5c4cc3-c3ccccc3)cc2)CCC1
How it was run: as §1

[4] = compound: NCC(=O)Nc1ccc(-n2nc(C(F)(F)F)cc2-c2ccc3c(ccc4ccccc43)c2)cc1
How it was run: as §1

entinostat = compound: Nc1ccccc1NC(=O)c1ccc(CNC(=O)OCc2cccnc2)cc1 [entinostat]
How it was run: as §1

vorinostat = compound: O=C(CCCCCCC(=O)Nc1ccccc1)NO [vorinostat]
How it was run: as §1

citarinostat = compound: O=C(CCCCCCNC(=O)c1cnc(N(c2ccccc2)c2ccccc2Cl)nc1)NO [citarinostat]
How it was run: as §1

silmitasertib = compound: O=C(O)c1ccc2c(c1)nc(Nc1cccc(Cl)c1)c1ccncc12 [silmitasertib]
How it was run: as §1

[5] = compound: O=C1NC(=O)C(c2cnc3ccccn23)=C1c1cn2c3c(cc(F)cc13)CN(C(=O)N1CCCCC1)CC2
How it was run: as §1

[6] = compound: c1cc(OCCN2CCCCC2)cc(-c2n[nH]c3ccc(-c4nnc[nH]4)cc23)c1
How it was run: as §1

| Target | log2 fold change [1] | log2 fold change [2] | log2 fold change [3] | log2 fold change [4] | log2 fold change (entinostat) | log2 fold change (vorinostat) | log2 fold change (citarinostat) | log2 fold change (silmitasertib) | log2 fold change [5] | log2 fold change [6] |
| --- | --- | --- | --- | --- | --- | --- | --- | --- | --- | --- |
| ERCC6 (UniProt Q03468) | inactive: -0.288 | inactive: -0.022 | inactive: -0.062 | inactive: 0.034 | inactive: -0.191 | inactive: -0.003 | inactive: -0.213 | inactive: 0.079 | inactive: 0.013 | inactive: -0.236 |
| EXOSC4 (UniProt Q9NPD3) | inactive: 0.125 | inactive: 0.004 | inactive: 0.023 | inactive: 0.153 | inactive: 0.017 | inactive: 0.03 | inactive: 0.011 | inactive: -0.038 | inactive: 0.037 | inactive: -0.025 |
| EXT2 isoform 3 (UniProt Q93063) | inactive: 0.006 | inactive: -0.015 | inactive: -0.125 | inactive: 0.037 | inactive: -0.057 | inactive: -0.008 | inactive: 0.007 | inactive: 0.105 | inactive: 0.094 | inactive: -0.083 |
| ETFA (UniProt P13804) | inactive: -0.077 | inactive: -0.044 | inactive: -0.032 | inactive: -0.007 | inactive: -0.029 | inactive: 0.001 | inactive: 0.021 | inactive: 0.007 | inactive: -0.014 | inactive: -0.026 |
| FAAP100 (UniProt Q0VG06) | inactive: 0.009 | inactive: 0.039 | inactive: -0.076 | inactive: -0.031 | inactive: -0.05 | inactive: 0.048 | inactive: -0.012 | inactive: -0.051 | inactive: 0.197 | inactive: -0.053 |
| EPRS (UniProt P07814) | inactive: 0.132 | inactive: 0.005 | inactive: 0.194 | inactive: 0.075 | inactive: 0.054 | inactive: -0.001 | inactive: -0.05 | inactive: 0.25 | inactive: 0.321 | inactive: -0.167 |
| EXOSC10 (UniProt Q01780) | inactive: -0.49 | inactive: -0.054 | inactive: 0.014 | inactive: -0.189 | inactive: -0.339 | inactive: 0.039 | inactive: -0.125 | inactive: 0.041 | inactive: -0.044 | inactive: 0.01 |
| FAF2 (UniProt Q96CS3) | inactive: -0.016 | inactive: -0.038 | inactive: -0.038 | inactive: -0.027 | inactive: 0.021 | inactive: 0.092 | inactive: 0.015 | inactive: 0.007 | inactive: -0.054 | inactive: -0.018 |
| EXOC1 (UniProt Q9NV70) | inactive: 0.043 | inactive: -0.162 | inactive: -0.228 | inactive: -0.065 | inactive: 0.062 | inactive: 0.082 | inactive: 0.014 | inactive: 0.127 | inactive: 0.069 | inactive: -0.165 |
| FADS3 (UniProt Q9Y5Q0) | inactive: -0.086 | inactive: -0.096 | inactive: -0.074 | inactive: 0.079 | inactive: -0.06 | inactive: 0.024 | inactive: 0.022 | inactive: -0.008 | inactive: 0.259 | inactive: -0.034 |
| FAM133B (UniProt Q5BKY9) | inactive: -0.019 | inactive: -0.03 | inactive: 0.033 | inactive: -0.101 | inactive: -0.025 | inactive: -0.004 | inactive: 0.04 | inactive: 0.026 | inactive: 0.005 | inactive: -0.033 |
| ESD (UniProt P10768) | inactive: 0.024 | inactive: 0.006 | inactive: 0.028 | inactive: 0.001 | inactive: -0.021 | inactive: -0.049 | inactive: 0.011 | inactive: -0.004 | inactive: -0.068 | inactive: 0.024 |
| ERC1 (UniProt Q8IUD2) | inactive: -0.087 | inactive: -0.209 | inactive: 0.166 | inactive: -0.001 | inactive: -0.016 | inactive: -0.078 | inactive: 0.034 | inactive: -0.11 | inactive: -0.04 | inactive: 0.038 |
| ETF1 (UniProt P62495) | inactive: -0.009 | inactive: -0.077 | inactive: -0.11 | inactive: -0.093 | inactive: 0.022 | inactive: 0.023 | inactive: 0.033 | inactive: 0.002 | inactive: -0.068 | inactive: -0.075 |
| ERAP1 isoform 2 (UniProt Q9NZ08) | inactive: -0.003 | inactive: 0.006 | inactive: -0.088 | inactive: 0.035 | inactive: -0.013 | inactive: -0.01 | inactive: 0.024 | inactive: 0.008 | inactive: 0.033 | inactive: -0.09 |
| ERLEC1 (UniProt Q96DZ1) | inactive: -0.079 | inactive: -0.025 | inactive: -0.058 | inactive: -0.01 | inactive: 0.006 | inactive: -0.054 | inactive: 0.001 | inactive: 0.063 | inactive: -0.021 | inactive: -0.03 |
| EXOC8 (UniProt Q8IYI6) | inactive: 0.044 | inactive: -0.044 | active: -0.373 | inactive: -0.039 | inactive: 0.108 | inactive: 0.051 | inactive: 0.084 | inactive: 0.035 | inactive: 0.045 | inactive: -0.062 |
| EXOC3 (UniProt O60645) | inactive: -0.007 | inactive: -0.175 | inactive: -0.123 | inactive: -0.075 | inactive: 0.036 | inactive: 0.16 | inactive: 0.006 | inactive: 0.055 | inactive: 0.028 | inactive: -0.067 |
| EPS15L1 isoform 2 (UniProt Q9UBC2) | inactive: -0.022 | inactive: -0.051 | inactive: -0.131 | inactive: -0.025 | inactive: 0.067 | inactive: 0.048 | inactive: 0.06 | inactive: 0.072 | inactive: 0 | inactive: -0.016 |
| ERGIC2 (UniProt Q96RQ1) | inactive: 0.003 | inactive: -0.034 | inactive: -0.069 | inactive: -0.044 | inactive: -0.015 | inactive: 0.051 | inactive: 0 | inactive: -0.031 | inactive: -0.045 | inactive: 0 |
| EXOSC5 (UniProt Q9NQT4) | inactive: 0.034 | inactive: -0.023 | inactive: 0.007 | inactive: 0.039 | inactive: -0.008 | inactive: -0.014 | inactive: 0.034 | inactive: -0.036 | inactive: 0.052 | inactive: -0.03 |
| ETFB (UniProt P38117) | inactive: -0.027 | inactive: -0.051 | inactive: 0.011 | inactive: -0.028 | inactive: -0.011 | inactive: -0.023 | inactive: -0.064 | inactive: -0.044 | inactive: -0.025 | inactive: -0.039 |
| EXTL3 (UniProt O43909) | inactive: -0.177 | inactive: -0.247 | inactive: -0.24 | inactive: 0.058 | inactive: -0.004 | inactive: 0.006 | inactive: -0.028 | inactive: -0.063 | inactive: 0.126 | inactive: 0.046 |
| EVC2 (UniProt Q86UK5) | inactive: -0.074 | inactive: -0.129 | inactive: 0.013 | inactive: -0.268 | inactive: 0.004 | inactive: -0.071 | inactive: 0.024 | inactive: -0.042 | inactive: 0.024 | inactive: -0.114 |
| EXOC6 (UniProt Q8TAG9) | inactive: -0.052 | inactive: -0.091 | inactive: -0.258 | inactive: -0.078 | inactive: 0.045 | active: 0.324 | inactive: 0.023 | inactive: 0.049 | inactive: 0.03 | inactive: 0.007 |
| FAH (UniProt P16930) | inactive: 0.009 | inactive: -0.041 | inactive: 0.021 | inactive: -0.037 | inactive: -0.018 | inactive: -0.018 | inactive: 0.042 | inactive: -0.002 | inactive: -0.075 | inactive: 0.059 |
| ERMAP (UniProt Q96PL5) | inactive: -0.103 | inactive: -0.032 | inactive: 0.01 | inactive: -0.008 | inactive: -0.029 | inactive: 0.05 | inactive: -0.009 | inactive: 0.005 | inactive: 0.014 | inactive: -0.085 |
| ETNK1 (UniProt Q9HBU6) | active: 0.25 | inactive: 0.011 | inactive: -0.144 | inactive: -0.057 | inactive: 0.089 | inactive: -0.01 | inactive: 0.019 | inactive: 0.041 | inactive: 0.208 | inactive: -0.084 |
| EWSR1 isoform 5 (UniProt Q01844) | inactive: 0.023 | inactive: 0.016 | inactive: 0.065 | inactive: 0.017 | inactive: -0.034 | inactive: -0.054 | inactive: -0.026 | inactive: 0.014 | inactive: 0.075 | inactive: -0.065 |

Six neighbouring entries already listed, for reference:

| Target | log2 fold change [1] | log2 fold change [2] | log2 fold change [3] | log2 fold change [4] | log2 fold change (entinostat) | log2 fold change (vorinostat) | log2 fold change (citarinostat) | log2 fold change (silmitasertib) | log2 fold change [5] | log2 fold change [6] |
| --- | --- | --- | --- | --- | --- | --- | --- | --- | --- | --- |
| EXTL3 (UniProt O43909) | inactive: -0.177 | inactive: -0.247 | inactive: -0.24 | inactive: 0.058 | inactive: -0.004 | inactive: 0.006 | inactive: -0.028 | inactive: -0.063 | inactive: 0.126 | inactive: 0.046 |
| EVC2 (UniProt Q86UK5) | inactive: -0.074 | inactive: -0.129 | inactive: 0.013 | inactive: -0.268 | inactive: 0.004 | inactive: -0.071 | inactive: 0.024 | inactive: -0.042 | inactive: 0.024 | inactive: -0.114 |
| EXOC6 (UniProt Q8TAG9) | inactive: -0.052 | inactive: -0.091 | inactive: -0.258 | inactive: -0.078 | inactive: 0.045 | active: 0.324 | inactive: 0.023 | inactive: 0.049 | inactive: 0.03 | inactive: 0.007 |
| FAH (UniProt P16930) | inactive: 0.009 | inactive: -0.041 | inactive: 0.021 | inactive: -0.037 | inactive: -0.018 | inactive: -0.018 | inactive: 0.042 | inactive: -0.002 | inactive: -0.075 | inactive: 0.059 |
| ERMAP (UniProt Q96PL5) | inactive: -0.103 | inactive: -0.032 | inactive: 0.01 | inactive: -0.008 | inactive: -0.029 | inactive: 0.05 | inactive: -0.009 | inactive: 0.005 | inactive: 0.014 | inactive: -0.085 |
| ETNK1 (UniProt Q9HBU6) | active: 0.25 | inactive: 0.011 | inactive: -0.144 | inactive: -0.057 | inactive: 0.089 | inactive: -0.01 | inactive: 0.019 | inactive: 0.041 | inactive: 0.208 | inactive: -0.084 |
